Results are given in words; binding and its absence hold for the method and conditions named. Binding seen in cells or lysates may run through a third protein. Some entries that bind do so weakly or less than the wild type.
Target: transcription factor MYC (human (endogenous in SGC-7901 and HGC-27)) (UniProt P01106)
Experiment: co-IP; whole-cell lysates of SGC-7901 and HGC-27 cells, precleared with anti-IgG for 2 h, protein G Sepharose beads overnight, Western blot; input 5% of the total cell extract

Chains of the proteins cited; added tags and fusions are not shown.
UniProt P01106: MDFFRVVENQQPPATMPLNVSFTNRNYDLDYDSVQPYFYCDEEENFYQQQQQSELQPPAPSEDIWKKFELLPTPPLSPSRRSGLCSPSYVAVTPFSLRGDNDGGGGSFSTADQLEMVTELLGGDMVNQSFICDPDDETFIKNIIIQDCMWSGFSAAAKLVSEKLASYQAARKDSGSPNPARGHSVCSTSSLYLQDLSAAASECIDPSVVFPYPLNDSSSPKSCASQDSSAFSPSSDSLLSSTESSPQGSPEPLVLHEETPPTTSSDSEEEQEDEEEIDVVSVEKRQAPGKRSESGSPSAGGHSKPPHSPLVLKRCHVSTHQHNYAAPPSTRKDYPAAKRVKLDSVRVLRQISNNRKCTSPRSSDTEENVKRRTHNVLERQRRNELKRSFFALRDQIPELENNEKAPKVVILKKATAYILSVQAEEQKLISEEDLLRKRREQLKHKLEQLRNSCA

binding: binds
B1: RNA-binding motif, single-stranded-interacting protein 1 (RBMS1) (protein, UniProt P29558 1-406)
chain: MGKVWKQQMYPQYATYYYPQYLQAKQSLVPAHPMAPPSPSTTSSNNNSSSSSNSGWDQLSKTNLYIRGLPPHTTDQDLVKLCQPYGKIVSTKAILDKTTNKCKGYGFVDFDSPAAAQKAVSALKASGVQAQMAKQQEQDPTNLYISNLPLSMDEQELENMLKPFGQVISTRILRDSSGTSRGVGFARMESTEKCEAVIGHFNGKFIKTPPGVSAPTEPLLCKFADGGQKKRQNPNKYIPNGRPWHREGEVRLAGMTLTYDPTTAAIQNGFYPSPYSIATNRMITQTSITPYIASPVSAYQVQSPSWMQPQPYILQHPGAVLTPSMEHTMSLQPASMISPLAQQMSHLSLGSTGTYMPATSAMQGAYLPQYAHMQTTAVPVEEASGQQQVAVETSNDHSPYTFQPNK

Source: paper PMC8971453
